Results from article PMC5438710.
Results are given in words; binding and its absence hold for the method and conditions named. In cells and extracts the contact can be indirect. Some results given as binding are weak or reduced against the parent protein; the word gives no strength.

Molecular target: Myc-tagged p53 (human) (UniProt P04637)
Experiment: co-IP; Myc-tagged p53 precipitated with anti-Myc antibody and Protein A-agarose from 1 mg lysate of transfected MCF-7 cells (with and without NDRG2 overexpression, ADR treatment), 4°C overnight, three washes with lysis buffer; immunoblot with Bad antibody

B1: Bad (protein, UniProt Q92934 1-168)
chain: MFQIPEFEPSEQEDSSSAERGLGPSPAGDGPSGSGKHHRQAPGLLWDASHQQEQPTSSSHHGGAGAVEIRSRHSSYPAGTEDDEGMGEEPSPFRGRSRSAPPNLWAAQRYGRELRRMSDEFVDSFKKGLPRPKSAGTATQMRQSSSWTRVFQSWWDRNLGRGSSAPSQ
- binding: binds
